In PMC4632003:

Columns and labels:
[1] = target: T1, CHCHD6 (human (endogenous in HeLa)) (UniProt Q9BRQ6); experiment: co-IP; IP of endogenous Mitofilin or CHCHD6 from HeLa lysate (control cells; Mitofilin IP also from CHCHD6-knockout cells) with antibody crosslinked to protein A Sepharose beads, overnight at 4 °C, washed with cold PBS; immunoblot
T1 sequence: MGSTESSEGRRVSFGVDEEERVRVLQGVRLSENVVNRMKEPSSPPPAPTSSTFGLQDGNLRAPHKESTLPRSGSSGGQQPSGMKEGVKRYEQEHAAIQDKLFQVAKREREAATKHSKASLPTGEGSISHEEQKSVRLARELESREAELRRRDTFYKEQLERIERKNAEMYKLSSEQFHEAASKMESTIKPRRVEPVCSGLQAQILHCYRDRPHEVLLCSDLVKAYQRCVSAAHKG

[2] = target: T2, Mitofilin (human (endogenous in HeLa)) (UniProt Q16891); experiment: as above
T2 sequence: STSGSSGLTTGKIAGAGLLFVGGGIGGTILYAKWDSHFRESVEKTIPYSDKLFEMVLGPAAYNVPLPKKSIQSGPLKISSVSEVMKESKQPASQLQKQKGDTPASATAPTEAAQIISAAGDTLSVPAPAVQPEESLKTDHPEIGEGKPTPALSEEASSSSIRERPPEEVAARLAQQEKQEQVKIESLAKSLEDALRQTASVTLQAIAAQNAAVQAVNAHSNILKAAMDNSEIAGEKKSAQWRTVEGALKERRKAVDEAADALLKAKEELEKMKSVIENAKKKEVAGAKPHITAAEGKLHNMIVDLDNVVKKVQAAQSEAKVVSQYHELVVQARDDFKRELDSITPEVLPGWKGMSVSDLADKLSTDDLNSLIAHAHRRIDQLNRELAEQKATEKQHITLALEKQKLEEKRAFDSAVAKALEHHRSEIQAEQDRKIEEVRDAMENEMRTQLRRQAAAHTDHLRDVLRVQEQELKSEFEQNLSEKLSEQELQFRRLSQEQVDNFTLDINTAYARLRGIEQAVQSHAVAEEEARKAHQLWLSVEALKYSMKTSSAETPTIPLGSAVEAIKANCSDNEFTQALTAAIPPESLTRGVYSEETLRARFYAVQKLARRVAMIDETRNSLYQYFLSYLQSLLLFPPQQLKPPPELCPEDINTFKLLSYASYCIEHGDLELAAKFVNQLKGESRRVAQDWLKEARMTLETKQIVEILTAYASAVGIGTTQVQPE

binding [1] | binding [2] | Substance
no binding | no binding | OPA1, long form (human (endogenous in HeLa))
binds | binds | OPA1, soluble form (human (endogenous in HeLa))

Results are given in words; binding and its absence hold for the method and conditions named. In cells and extracts the contact can be indirect. Binding can be weak; no strength is given.
